Test results: patent US20240084003A1
These are yes or no findings as the source states them, for the method shown. Some binding calls cover weakened binding; strength is not graded here. For some assays here: Tags and fused reporters may be left off the sequences shown.

Chains of the proteins cited; added tags and fusions are not shown. Lines headed by an entry give the natural chain unless they say otherwise; changes in a name come on top.
UniProt P20273: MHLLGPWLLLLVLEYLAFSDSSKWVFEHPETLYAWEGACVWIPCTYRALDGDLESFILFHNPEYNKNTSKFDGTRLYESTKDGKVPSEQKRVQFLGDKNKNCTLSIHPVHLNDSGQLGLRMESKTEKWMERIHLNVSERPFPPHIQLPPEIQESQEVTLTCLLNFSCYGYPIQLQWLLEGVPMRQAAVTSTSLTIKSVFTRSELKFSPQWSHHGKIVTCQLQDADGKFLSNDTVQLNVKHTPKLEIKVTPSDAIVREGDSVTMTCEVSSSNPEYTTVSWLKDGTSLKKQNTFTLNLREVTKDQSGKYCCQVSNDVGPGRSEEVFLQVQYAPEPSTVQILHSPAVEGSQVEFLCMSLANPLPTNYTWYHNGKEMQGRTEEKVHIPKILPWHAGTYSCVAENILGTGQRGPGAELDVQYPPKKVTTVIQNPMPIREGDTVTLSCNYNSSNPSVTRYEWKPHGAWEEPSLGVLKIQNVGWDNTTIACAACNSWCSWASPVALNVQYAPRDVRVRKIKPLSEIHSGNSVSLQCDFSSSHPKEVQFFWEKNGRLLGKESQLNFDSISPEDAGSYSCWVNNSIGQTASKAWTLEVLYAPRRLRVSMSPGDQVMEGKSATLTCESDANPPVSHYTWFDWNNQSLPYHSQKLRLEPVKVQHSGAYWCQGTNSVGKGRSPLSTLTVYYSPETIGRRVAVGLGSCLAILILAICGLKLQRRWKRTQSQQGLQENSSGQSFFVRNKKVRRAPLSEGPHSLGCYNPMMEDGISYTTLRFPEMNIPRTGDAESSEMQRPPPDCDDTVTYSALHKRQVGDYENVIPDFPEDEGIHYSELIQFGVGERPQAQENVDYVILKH

Legend:
[1] = molecular target: T1, monkey CD22 protein (ACROBiosystems, SI2-R52Ha) (monkey (rhesus monkey in paragraph 148)) (UniProt H9G1X2); test: ELISA, coated monkey CD22
T1 sequence: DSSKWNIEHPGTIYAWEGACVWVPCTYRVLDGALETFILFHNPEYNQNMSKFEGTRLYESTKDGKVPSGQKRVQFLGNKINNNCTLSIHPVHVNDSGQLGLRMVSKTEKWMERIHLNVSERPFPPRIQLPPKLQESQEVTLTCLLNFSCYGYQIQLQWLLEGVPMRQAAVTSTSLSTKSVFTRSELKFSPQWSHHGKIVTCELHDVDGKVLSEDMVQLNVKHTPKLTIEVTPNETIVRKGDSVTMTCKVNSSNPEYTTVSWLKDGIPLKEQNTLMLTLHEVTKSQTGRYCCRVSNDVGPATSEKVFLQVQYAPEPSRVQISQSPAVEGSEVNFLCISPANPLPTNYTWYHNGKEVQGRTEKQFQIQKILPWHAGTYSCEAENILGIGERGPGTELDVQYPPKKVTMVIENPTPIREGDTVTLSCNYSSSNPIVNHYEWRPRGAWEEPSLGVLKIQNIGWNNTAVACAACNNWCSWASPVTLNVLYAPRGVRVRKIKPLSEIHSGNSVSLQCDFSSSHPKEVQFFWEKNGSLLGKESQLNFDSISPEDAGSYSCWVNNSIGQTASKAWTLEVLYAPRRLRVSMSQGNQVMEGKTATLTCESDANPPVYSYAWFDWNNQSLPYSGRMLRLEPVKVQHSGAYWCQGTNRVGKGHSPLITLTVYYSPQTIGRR

[2] = molecular target: human CD22-ECD-His protein (human) (UniProt P20273); test: ELISA, coated hCD22-ECD-His
[3] = molecular target: T2, monkey CD22 (full length, on HEK293T cells) (monkey); test: FACS on HEK293T-monkey CD22 cells
T2 sequence: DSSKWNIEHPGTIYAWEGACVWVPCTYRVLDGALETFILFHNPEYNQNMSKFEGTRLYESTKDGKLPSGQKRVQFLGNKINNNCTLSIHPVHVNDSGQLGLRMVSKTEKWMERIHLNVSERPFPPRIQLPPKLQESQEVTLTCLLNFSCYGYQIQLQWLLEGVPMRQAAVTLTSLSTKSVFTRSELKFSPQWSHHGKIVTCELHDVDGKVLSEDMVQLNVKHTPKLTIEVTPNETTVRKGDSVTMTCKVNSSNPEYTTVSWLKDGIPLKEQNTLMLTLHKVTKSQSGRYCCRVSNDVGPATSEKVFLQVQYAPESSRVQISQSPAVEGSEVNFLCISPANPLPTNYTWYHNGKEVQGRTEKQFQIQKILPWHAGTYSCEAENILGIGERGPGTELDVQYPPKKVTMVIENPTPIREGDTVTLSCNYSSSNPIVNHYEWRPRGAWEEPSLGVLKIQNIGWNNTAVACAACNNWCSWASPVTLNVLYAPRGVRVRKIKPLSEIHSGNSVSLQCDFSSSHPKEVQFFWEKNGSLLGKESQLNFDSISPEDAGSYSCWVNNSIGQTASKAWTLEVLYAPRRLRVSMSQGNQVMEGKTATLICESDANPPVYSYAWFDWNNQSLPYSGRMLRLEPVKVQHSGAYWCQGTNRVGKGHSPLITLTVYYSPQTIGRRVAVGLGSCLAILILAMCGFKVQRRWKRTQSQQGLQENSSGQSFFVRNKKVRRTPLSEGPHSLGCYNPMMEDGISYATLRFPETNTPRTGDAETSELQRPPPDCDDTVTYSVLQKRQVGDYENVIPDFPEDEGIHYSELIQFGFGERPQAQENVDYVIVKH

[4] = molecular target: human CD22-ECD-His protein (human) (UniProt P20273); test: ELISA, human CD22-ECD-His coated
[5] = molecular target: T1, monkey CD22 protein (ACROBiosystems, SI2-R52Ha) (monkey (rhesus monkey in paragraph 148)); test: ELISA, monkey CD22-ECD-His coated
[6] = molecular target: human CD22 (full length, on cells) (human) (UniProt P20273); test: FACS on Raji and CHO-K1-human CD22 2C4 cells
[7] = molecular target: human CD22 domain1-4-His (human) (UniProt P20273); test: ELISA, human CD22 domain1-4-His coated
[8] = molecular target: human CD22 domain1-4-His (human) (UniProt P20273); test: ELISA, plate coated with human CD22 domain1-4-His
[9] = molecular target: human CD22 (full length, on cells) (human) (UniProt P20273); test: FACS, Raji cells (MoLT4 as CD22-negative cells)
[10] = molecular target: human CD22 (full length, on cells) (human) (UniProt P20273); test: FACS, CHO-K1-human CD22 cells (CHO-K1 as parent cells)
[11] = molecular target: T2, monkey CD22 (full length, on HEK293T cells) (monkey); test: FACS, HEK293T-monkey CD22 cells (293T as parent cells)
[12] = molecular target: T3, rhesus monkey CD22-ECD-His protein (rhesus monkey) (UniProt H9G1X2); test: SPR (Biacore), antibody captured on Protein A chip, rhesus CD22 in solution
T3 sequence: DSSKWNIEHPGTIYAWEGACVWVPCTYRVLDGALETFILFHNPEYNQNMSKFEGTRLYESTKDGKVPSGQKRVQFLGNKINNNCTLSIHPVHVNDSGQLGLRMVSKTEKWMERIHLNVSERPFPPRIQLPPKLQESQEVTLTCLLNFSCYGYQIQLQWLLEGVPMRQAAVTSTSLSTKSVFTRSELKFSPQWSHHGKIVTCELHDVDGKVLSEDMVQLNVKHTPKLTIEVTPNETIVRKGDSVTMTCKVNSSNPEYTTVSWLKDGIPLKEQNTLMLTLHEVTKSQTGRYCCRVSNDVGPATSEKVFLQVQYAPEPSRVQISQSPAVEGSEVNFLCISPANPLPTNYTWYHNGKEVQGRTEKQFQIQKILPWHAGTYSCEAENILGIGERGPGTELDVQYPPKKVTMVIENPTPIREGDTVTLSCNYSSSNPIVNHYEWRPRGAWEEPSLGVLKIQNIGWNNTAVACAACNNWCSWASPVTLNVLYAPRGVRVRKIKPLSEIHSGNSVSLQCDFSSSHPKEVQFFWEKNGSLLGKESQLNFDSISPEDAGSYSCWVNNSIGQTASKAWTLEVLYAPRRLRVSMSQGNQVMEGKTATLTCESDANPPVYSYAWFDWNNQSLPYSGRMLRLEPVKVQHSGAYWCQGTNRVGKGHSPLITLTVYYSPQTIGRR

Measured: binding

B1: F2.121.9 (antibody, human IgG1, lambda, V domains shown)
VH: EVQLVESGGGLVKPGGSLKLSCAASGFTFSDYVMSWIRQTPEKRLEWVATISDAGSYTFYPDNLKGRFTISRDNAKNNLYLQMNHLTSEDTAFYYCAIIYFGNYGGYWGQGTLVTVSV
VL: QAVVTQESALTTSPGGTVVLTCRSNTGAVTTSNYANWVQEKPDHLFTGLIGGTSNRAPGVPVRFSGSLIGDKAALTITGAQTEDDAMYFCALWYSTHWVFGGGTKLTVLG
binds: all assays above

B2: F2.205.9 (antibody, human IgG1, lambda, V domains shown)
VH: QVTLKESGPGILQPSQTLSLTCSFSGFSLSTSGMGVGWIRQPSGKGLEWLAHIWWDDDEYYNPALKSRLTISKDTSKNQVFLKIANVDTADTATYYCARISIPYGYYDWFFDVWGTGTTVTVSA
VL: QAVVTQESALTTSPGETVTLTCRSSTGAVTTRNYANWVQEKPDHLFTGLIGGTNNRAPGVPARFSGSLIGDKAALTITGAQTEDEAIYFCALWYSNHFIFGSGTKVTVLG
not listed: [12]
binds: all other assays above
